Assay results published in the odorant receptor screen of Mainland et al. (2015).
Several values for one entry are separate records, joined by “and”; a condition that tells them apart may be missing. Identical values can stand only once. Some of the results follow. Single wells; the ratio to wells without odorant was worked out here, and repeats agree poorly.

Key:
Assay in all cases: odorant receptor activation (CRE luciferase / Renilla) (fold of no-odor wells); higher = more activation
Details in all cases: 100 µM
OR51F2 clone 1330 = tested on: OR51F2 clone 1330
OR51G1 clone 1165 = tested on: OR51G1 clone 1165
OR51G2 clone 1199 = tested on: OR51G2 clone 1199
OR51H1 clone 1187 = tested on: OR51H1 clone 1187
OR51I1 clone 1555 = tested on: OR51I1 clone 1555
OR51I2 clone 1133 = tested on: OR51I2 clone 1133
OR51J1 R75H clone 1698 = tested on: OR51J1 R75H clone 1698
OR51L1 I281M clone 1535 = tested on: OR51L1 I281M clone 1535
[1] = tested on: OR51L1 T196I/A207V clone 1533
OR51L1 clone 1183 = tested on: OR51L1 clone 1183
OR51L1 clone 1534 = tested on: OR51L1 clone 1534
[2] = tested on: OR51M1 H91Q/L124F/I193T/P245H/F307L clone 1121
OR51Q1 clone 1190 = tested on: OR51Q1 clone 1190
OR51S1 clone 1699 = tested on: OR51S1 clone 1699
OR51T1 clone 1326 = tested on: OR51T1 clone 1326
OR51V1 clone 1700 = tested on: OR51V1 clone 1700
OR51V1 clone 1701 = tested on: OR51V1 clone 1701
OR52A1 S272P clone 1151 = tested on: OR52A1 S272P clone 1151
OR52A4 clone 1719 = tested on: OR52A4 clone 1719
OR52A5 clone 1568 = tested on: OR52A5 clone 1568

| SMILES | odorant receptor activation (OR51F2 clone 1330) | odorant receptor activation (OR51G1 clone 1165) | odorant receptor activation (OR51G2 clone 1199) | odorant receptor activation (OR51H1 clone 1187) | odorant receptor activation (OR51I1 clone 1555) | odorant receptor activation (OR51I2 clone 1133) | odorant receptor activation (OR51J1 R75H clone 1698) | odorant receptor activation (OR51L1 I281M clone 1535) | odorant receptor activation [1] | odorant receptor activation (OR51L1 clone 1183) | odorant receptor activation (OR51L1 clone 1534) | odorant receptor activation [2] | odorant receptor activation (OR51Q1 clone 1190) | odorant receptor activation (OR51S1 clone 1699) | odorant receptor activation (OR51T1 clone 1326) | odorant receptor activation (OR51V1 clone 1700) | odorant receptor activation (OR51V1 clone 1701) | odorant receptor activation (OR52A1 S272P clone 1151) | odorant receptor activation (OR52A4 clone 1719) | odorant receptor activation (OR52A5 clone 1568) |
| --- | --- | --- | --- | --- | --- | --- | --- | --- | --- | --- | --- | --- | --- | --- | --- | --- | --- | --- | --- | --- |
| CCCCCOC(C)=O [n-amyl acetate] | 0.382 | 0.468 | 0.583 | 0.501 | 4.38 | 0.672 | 0.982 | 0.982 and 0.745 | 1.1 and 0.903 | 0.688 | 0.575 and 0.714 | 1 | 0.408 | 1.14 | 0.309 | 1.15 | 0.815 | 0.501 | 0.919 | 1.04 |
| C=CCc1ccc(OC)c(OC)c1 [eugenol methyl ether] | 1.47 | 1.51 | 1.4 | 1.28 | 1 | 1.05 | 0.577 | 1.47 | 1.7 | 1.57 | 1.42 | 1.75 | 1.51 | 0.68 | 1.55 | 0.976 | 0.713 | 1.3 | 0.947 | 1.05 |
| C=C(C)C1CC=C(C)C(=O)C1 (centres undefined) [r-carvone] | 0.645 | 1.05 | 0.823 | 1.32 | 1.01 | 0.83 | 0.69 | 1.02 | 1.02 | 0.981 | 0.846 | 1.15 | 0.622 | 0.772 | 0.786 | 0.952 | 0.644 | 1.09 | 0.757 | 0.7 |
| CC12C=CCC1C1CCC3CC(=O)CCC3(C)C1CC2 (centres undefined) [androstenone] | 0.947 | 8.34 | 6.97 | 5.67 | – | 6.36 | – | 0.95 | 1.22 | 2.35 | 0.978 | – | 3.23 | – | 1.3 | – | – | 5.52 | – | – |
| CC(=O)OC(C)(C)C1CC=C(C)CC1 (centres undefined) [terpinyl acetate] | 0.775 | 1.22 | 1.28 | 1.2 | 5.58 | 1.14 | 1.02 | 1.17 | 0.896 | 1.18 | 0.869 | 0.864 | 1.12 | 1.04 | 0.843 | 1.29 | 0.883 | 1.21 | 0.958 | 1 |
| C=C(C)C1CC=CCC1 (centres undefined) [r-limonene] | 0.723 and 0.248 | 1.01 and 0.356 | 0.859 and 0.506 | 1.13 and 0.561 | 0.908 | 1.06 and 0.51 | 0.865 | 0.966 and 1.1 and 0.815 | 1.08 and 0.943 and 0.888 | 0.86 and 0.628 | 0.971 and 0.531 and 0.666 | 0.943 | 0.799 and 0.375 | 0.928 | – | 1.39 | 0.984 | 0.993 and 0.41 | 1.17 | 0.976 |
| O=C1CCCCCCCCCCCC(=O)OCCO1 [ethylene brassylate] | 1.67 | 1.74 | 2.1 | 1.36 | 1.1 | 1.33 | 1.08 | 1.13 | 1.21 | 1.76 | 1.28 | 1.53 | 2.24 | 0.757 | 1.4 | 0.839 | 1.37 | 1.7 | 1.42 | 1.4 |
| CCCCCCCOC(C)=O [heptyl acetate] | – | 0.804 | 0.939 | 0.882 | 0.671 | 1.01 | 0.761 | 0.837 and 1.23 | 1.12 and 1.01 | 0.687 | 0.611 and 1.15 | 1.14 | 1.07 | 0.67 | 1 and 0.753 | 0.845 | 0.885 | 0.909 | 0.861 | 0.832 |
| CCCCCCCCC=O [nonyl aldehyde] | 0.893 | 1.03 | 0.855 | 0.831 | 0.916 | 1.28 | 0.732 | 1.3 | 0.848 | 0.982 | 1.06 | 1.59 | 1.04 | 0.682 | 0.605 | 1.18 | 0.696 | 1.02 | 0.755 | 0.89 |
| CC1=CCC(C(C)(C)O)CC1 (centres undefined) [terpineol] | 0.782 | 1.11 | 1.02 | 1.07 | 6.05 | 1.01 | 1.03 | 0.972 | 0.888 | 1.18 | 0.819 | 0.944 | 0.942 | 1.19 | 0.959 | 1.17 | 0.67 | 1.07 | 1.29 | 0.994 |
| CCCCCCCC=CC=O [2-decenal] | 1.18 | 1.34 | 1.24 | 0.872 | 1.08 | 1.24 | 0.937 | 1.53 | 1.17 | 0.924 | 1.43 | 0.893 | 0.878 | 1.2 | 0.915 | 1.16 | 0.908 | 0.965 | 1.18 | 1.07 |
| CCCCCCC=O [heptaldehyde] | 0.446 and 0.639 and 1.1 | – | 0.309 and 0.915 | 0.339 and 0.75 | 0.685 | – | 0.933 | – | – | 0.556 and 0.92 | – | 1.45 | – | 0.903 | 0.388 and 0.862 and 0.91 | 0.798 | 0.87 | 0.336 and 0.942 | 0.979 | 1.02 |
| CCCCCCCCCC=O [decyl aldehyde] | 1.31 | 1.1 | 1.21 | 0.949 | 0.629 | 1.1 | 0.751 | 1.13 | 1.1 | 1.34 | 0.986 | 1.9 | 1.2 | 0.645 | 1.15 | 0.598 | 0.98 | 1.12 | 0.729 | 0.986 |
| COC(=O)c1ccccc1O [methyl salicylate] | 0.826 | 0.986 | 1.02 | 0.743 | 1.06 | 0.834 | 0.807 | 1.01 | 0.89 | 1.04 | 1.04 | 0.968 | 0.962 | 1.08 | 0.509 | 0.867 | 1.08 | 0.803 | 0.845 | 0.844 |
